Laboratory results: publication PMC11972380
Results are given in words; binding and its absence hold for the method and conditions named. Binding seen in cells or lysates may run through a third protein. These calls come from enrichment with a bait or labelling near it, and not all partners need be listed.

Amino acid sequences for entries named in this document (tags omitted). Residues count along the entry.
UniProt Q9Y6N7, residues 26-1651: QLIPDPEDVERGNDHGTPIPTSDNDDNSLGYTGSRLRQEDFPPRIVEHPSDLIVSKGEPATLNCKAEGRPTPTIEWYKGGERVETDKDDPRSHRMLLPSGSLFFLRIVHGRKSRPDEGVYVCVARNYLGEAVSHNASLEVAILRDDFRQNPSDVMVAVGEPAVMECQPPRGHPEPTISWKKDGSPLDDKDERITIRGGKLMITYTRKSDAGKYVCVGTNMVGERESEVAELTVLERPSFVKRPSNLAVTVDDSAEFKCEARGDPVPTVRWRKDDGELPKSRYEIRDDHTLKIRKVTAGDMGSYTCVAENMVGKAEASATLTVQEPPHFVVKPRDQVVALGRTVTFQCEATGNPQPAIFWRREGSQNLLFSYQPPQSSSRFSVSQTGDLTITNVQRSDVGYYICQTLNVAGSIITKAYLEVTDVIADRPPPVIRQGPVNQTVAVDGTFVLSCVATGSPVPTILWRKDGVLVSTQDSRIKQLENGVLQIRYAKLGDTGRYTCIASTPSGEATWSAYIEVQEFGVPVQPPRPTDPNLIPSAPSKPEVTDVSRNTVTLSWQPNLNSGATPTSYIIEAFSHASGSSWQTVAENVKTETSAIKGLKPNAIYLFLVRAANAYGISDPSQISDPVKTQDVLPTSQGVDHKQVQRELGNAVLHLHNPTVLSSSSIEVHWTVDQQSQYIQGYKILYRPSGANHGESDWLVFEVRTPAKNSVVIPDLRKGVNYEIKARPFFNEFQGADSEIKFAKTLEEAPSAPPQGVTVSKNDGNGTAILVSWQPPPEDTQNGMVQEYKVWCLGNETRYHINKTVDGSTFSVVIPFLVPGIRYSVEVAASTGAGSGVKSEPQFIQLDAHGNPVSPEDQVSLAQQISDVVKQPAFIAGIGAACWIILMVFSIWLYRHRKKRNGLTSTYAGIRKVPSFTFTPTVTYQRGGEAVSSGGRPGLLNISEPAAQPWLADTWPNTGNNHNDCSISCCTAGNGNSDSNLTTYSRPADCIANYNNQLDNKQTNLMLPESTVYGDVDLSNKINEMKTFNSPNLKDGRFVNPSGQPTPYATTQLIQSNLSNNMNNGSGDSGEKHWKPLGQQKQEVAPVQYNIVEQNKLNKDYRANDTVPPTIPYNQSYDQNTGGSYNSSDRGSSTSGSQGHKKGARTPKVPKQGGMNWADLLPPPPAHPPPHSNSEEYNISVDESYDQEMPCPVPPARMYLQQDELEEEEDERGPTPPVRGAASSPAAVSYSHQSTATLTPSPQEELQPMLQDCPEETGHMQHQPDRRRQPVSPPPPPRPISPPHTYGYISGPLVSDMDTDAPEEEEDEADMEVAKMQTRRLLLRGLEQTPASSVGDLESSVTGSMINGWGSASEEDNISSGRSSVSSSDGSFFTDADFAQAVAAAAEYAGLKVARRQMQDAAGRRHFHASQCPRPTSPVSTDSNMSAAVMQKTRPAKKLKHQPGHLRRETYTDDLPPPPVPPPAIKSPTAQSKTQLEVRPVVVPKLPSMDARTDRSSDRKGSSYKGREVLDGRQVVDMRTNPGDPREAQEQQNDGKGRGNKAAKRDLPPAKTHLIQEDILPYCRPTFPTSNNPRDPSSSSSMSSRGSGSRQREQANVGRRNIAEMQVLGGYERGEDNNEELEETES

Molecular target: roundabout guidance receptor 1 (ROBO1) (human (endogenous in KYSE450 and TE1)) (UniProt Q9Y6N7)
Assay: affinity purification with mass spectrometry; endogenous ROBO1 immunoprecipitated with anti-ROBO1 antibodies from ESCC cells, LC-MS of the sediment

B1: G3BP2 (Ras GTPase-activating protein-binding protein 2) (protein, UniProt Q9UN86 1-482)
chain: MVMEKPSPLLVGREFVRQYYTLLNKAPEYLHRFYGRNSSYVHGGVDASGKPQEAVYGQNDIHHKVLSLNFSECHTKIRHVDAHATLSDGVVVQVMGLLSNSGQPERKFMQTFVLAPEGSVPNKFYVHNDMFRYEDEVFGDSEPELDEESEDEVEEEQEERQPSPEPVQENANSGYYEAHPVTNGIEEPLEESSHEPEPEPESETKTEELKPQVEEKNLEELEEKSTTPPPAEPVSLPQEPPKAFSWASVTSKNLPPSGTVSSSGIPPHVKAPVSQPRVEAKPEVQSQPPRVREQRPRERPGFPPRGPRPGRGDMEQNDSDNRRIIRYPDSHQLFVGNLPHDIDENELKEFFMSFGNVVELRINTKGVGGKLPNFGFVVFDDSEPVQRILIAKPIMFRGEVRLNVEEKKTRAARERETRGGGDDRRDIRRNDRGPGGPRGIVGGGMMRDRDGRGPPPRGGMAQKLGSGRGTGQMEGRFTGQRR
B1 was tested, and the binding was “binds”.
